Reference: patent US9822127B2, “GAK modulators as antivirals” (Katholieke Universiteit Leuven, priority 2014, dated 2017)
At least one compound was matched to its structure with a doubt left.

Tested on: VSV-EB GFP-reporter virus (VSV bearing surface glycoprotein of EBOV)
Assay type: cell-based, Ebola virus
Note: test concentration or dose not given here.

CCN(CC)CCNC(=O)c1c(C)[nH]c(/C=C2\C(=O)Nc3ccc(F)cc32)c1C [sunitinib, reference compound]
effect on VSV-EB infection, treatment alone: substantial dose-dependent reduction of VSV-EB infection
